Reference: paper PMC12730636
These are yes or no findings as the source states them, for the method shown. In cells and extracts the contact can be indirect. Some results given as binding are weak or reduced against the parent protein; the word gives no strength.

Chains of the proteins cited; added tags and fusions are not shown.
UniProt Q04656: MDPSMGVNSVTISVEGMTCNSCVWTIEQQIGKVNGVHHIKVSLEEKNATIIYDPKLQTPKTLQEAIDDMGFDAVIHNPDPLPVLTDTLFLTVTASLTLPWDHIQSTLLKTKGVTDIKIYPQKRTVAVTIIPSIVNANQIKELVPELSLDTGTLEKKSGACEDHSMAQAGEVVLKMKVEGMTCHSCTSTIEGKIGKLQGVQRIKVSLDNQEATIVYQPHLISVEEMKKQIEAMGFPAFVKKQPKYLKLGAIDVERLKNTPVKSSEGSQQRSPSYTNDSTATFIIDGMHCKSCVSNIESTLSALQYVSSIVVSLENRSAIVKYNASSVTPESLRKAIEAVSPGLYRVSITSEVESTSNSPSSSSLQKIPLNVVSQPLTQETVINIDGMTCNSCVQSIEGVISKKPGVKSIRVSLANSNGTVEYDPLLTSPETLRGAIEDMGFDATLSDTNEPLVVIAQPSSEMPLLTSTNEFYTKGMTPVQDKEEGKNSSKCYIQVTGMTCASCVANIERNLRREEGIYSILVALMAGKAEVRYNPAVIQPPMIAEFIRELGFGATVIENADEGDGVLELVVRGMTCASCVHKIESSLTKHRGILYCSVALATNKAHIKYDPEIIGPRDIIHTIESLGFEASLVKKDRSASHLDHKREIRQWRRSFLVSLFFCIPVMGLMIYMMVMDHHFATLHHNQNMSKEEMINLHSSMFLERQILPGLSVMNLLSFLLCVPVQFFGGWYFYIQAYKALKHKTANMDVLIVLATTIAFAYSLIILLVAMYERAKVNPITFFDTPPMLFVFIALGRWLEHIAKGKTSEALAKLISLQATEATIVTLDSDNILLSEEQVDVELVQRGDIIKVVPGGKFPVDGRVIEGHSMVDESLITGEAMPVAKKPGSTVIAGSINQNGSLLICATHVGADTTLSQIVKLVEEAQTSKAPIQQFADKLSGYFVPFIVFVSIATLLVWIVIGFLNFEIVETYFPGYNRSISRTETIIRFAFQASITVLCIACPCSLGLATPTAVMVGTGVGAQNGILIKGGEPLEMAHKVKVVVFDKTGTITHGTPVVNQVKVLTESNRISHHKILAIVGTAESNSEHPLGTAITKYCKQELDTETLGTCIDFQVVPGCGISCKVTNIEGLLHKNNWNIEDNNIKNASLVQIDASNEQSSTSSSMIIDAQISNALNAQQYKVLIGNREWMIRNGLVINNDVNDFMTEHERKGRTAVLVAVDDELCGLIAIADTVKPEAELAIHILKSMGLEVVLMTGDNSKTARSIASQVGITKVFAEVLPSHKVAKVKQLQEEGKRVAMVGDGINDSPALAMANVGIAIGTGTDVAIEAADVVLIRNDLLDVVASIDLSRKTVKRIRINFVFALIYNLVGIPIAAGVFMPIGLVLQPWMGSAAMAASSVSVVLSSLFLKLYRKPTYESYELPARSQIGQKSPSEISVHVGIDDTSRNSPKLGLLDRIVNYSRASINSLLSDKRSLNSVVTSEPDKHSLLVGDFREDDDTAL

Target: ATPase copper transporting alpha (ATP7A) (UniProt Q04656)
Test: co-IP; co-immunoprecipitation of TRIM14 and ATP7A; bait, antibody, cells and buffer not described; n = 3

binding: binds
B1: tripartite motif-containing protein 14 (TRIM14) (protein, UniProt Q14142 1-442)
chain: MAGAATGSRTPGRSELVEGCGWRCPEHGDRVAELFCRRCRRCVCALCPVLGAHRGHPVGLALEAAVHVQKLSQECLKQLAIKKQQHIDNITQIEDATEKLKANAESSKTWLKGKFTELRLLLDEEEALAKKFIDKNTQLTLQVYREQADSCREQLDIMNDLSNRVWSISQEPDPVQRLQAYTATEQEMQQQMSLGELCHPVPLSFEPVKSFFKGLVEAVESTLQTPLDIRLKESINCQLSDPSSTKPGTLLKTSPSPERSLLLKYARTPTLDPDTMHARLRLSADRLTVRCGLLGSLGPVPVLRFDALWQVLARDCFATGRHYWEVDVQEAGAGWWVGAAYASLRRRGASAAARLGCNRQSWCLKRYDLEYWAFHDGQRSRLRPRDDLDRLGVFLDYEAGVLAFYDVTGGMSHLHTFRATFQEPLYPALRLWEGAISIPRLP
